Reference: paper PMC12338722

Biological target: TapA, bacterial two-hybrid fusion
Test: two-hybrid

B1: MtrB truncation mutant MtrB_(1-285), bacterial two-hybrid fusion (domain or fragment, UniProt A0QTK3 1-285)
chain: MIFGSRRRIRGRWGGSGPLVRGLGTLGRALSLVWRRSLQLRVVTLTLGLSLAVILVLGFVLTSQITDRILEVKVKAATEEVERARNTVSGIVGGEESRSLESSLQLARNTLVDRKADVRADMAGAFDAVLVVPGDGPRAAAAAGPVAQIPEALRDFVKAGQVSYQYATVQTEGFSGPALIVGSPTTSSVPNLELYLIFPLNNEESTIALVRGTMATGGVVLLGLLAAIALVVARQIVQPVRSASRIAERFAEGHLTERMPVRGEDDMARLAVSFNDMAESLSRQI
Question: How did the binding turn out when B1 was run?
Answer: binds

Results are given in words; binding and its absence hold for the method and conditions named. Binding calls can cover weak binding; strength is not graded here. Sequences can lack the tags named with a protein.
